Results are given in words; binding and its absence hold for the method and conditions named. In cells and extracts the contact can be indirect. Some binding calls cover weakened binding; strength is not graded here.
Key:
[1] = target: c-Fos (human (endogenous in KGN)) (UniProt P01100); assay: co-IP; control and treated (PMA) KGN cells lysed in RIPA buffer, sonicated, pre-cleared; immunoprecipitated overnight with rabbit antibodies against NFkB p65 or c-Fos, protein A magnetic beads; western blot probed with an FHL2 antibody
[2] = target: NFκB P65 (human (endogenous in KGN)) (UniProt Q04206); assay: as above

Sequences of proteins named here, by UniProt entry; tags and fusion partners are left off.
UniProt P01100: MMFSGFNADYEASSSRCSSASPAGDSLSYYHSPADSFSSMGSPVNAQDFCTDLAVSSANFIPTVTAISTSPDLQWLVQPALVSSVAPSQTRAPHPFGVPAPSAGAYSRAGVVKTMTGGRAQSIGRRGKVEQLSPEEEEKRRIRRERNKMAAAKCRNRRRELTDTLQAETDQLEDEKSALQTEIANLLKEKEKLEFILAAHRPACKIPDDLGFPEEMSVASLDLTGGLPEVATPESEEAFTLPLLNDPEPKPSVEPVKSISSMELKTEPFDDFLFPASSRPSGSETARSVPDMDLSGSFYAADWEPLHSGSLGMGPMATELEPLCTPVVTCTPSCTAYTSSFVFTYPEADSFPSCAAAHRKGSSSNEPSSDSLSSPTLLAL
UniProt Q04206: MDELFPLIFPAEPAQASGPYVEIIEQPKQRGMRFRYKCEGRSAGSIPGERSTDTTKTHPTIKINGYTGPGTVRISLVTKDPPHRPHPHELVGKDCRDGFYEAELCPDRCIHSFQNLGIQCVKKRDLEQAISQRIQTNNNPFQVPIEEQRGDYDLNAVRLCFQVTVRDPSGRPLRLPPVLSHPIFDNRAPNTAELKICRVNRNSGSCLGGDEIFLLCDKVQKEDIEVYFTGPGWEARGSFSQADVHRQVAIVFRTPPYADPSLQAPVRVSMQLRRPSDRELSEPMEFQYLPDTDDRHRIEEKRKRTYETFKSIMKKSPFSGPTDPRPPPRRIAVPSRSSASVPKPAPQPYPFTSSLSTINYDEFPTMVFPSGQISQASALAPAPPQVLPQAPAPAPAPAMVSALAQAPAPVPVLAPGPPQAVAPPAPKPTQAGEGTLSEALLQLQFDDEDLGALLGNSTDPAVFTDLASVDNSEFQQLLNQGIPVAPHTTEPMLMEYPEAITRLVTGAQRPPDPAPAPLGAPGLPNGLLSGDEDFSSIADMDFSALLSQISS

binding [1]: binds
binding [2]: binds
B1: four and a half LIM domains 2 (FHL2) (protein, UniProt Q14192 1-279)
chain: MTERFDCHHCNESLFGKKYILREESPYCVVCFETLFANTCEECGKPIGCDCKDLSYKDRHWHEACFHCSQCRNSLVDKPFAAKEDQLLCTDCYSNEYSSKCQECKKTIMPGTRKMEYKGSSWHETCFICHRCQQPIGTKSFIPKDNQNFCVPCYEKQHAMQCVQCKKPITTGGVTYREQPWHKECFVCTACRKQLSGQRFTARDDFAYCLNCFCDLYAKKCAGCTNPISGLGGTKYISFEERQWHNDCFNCKKCSLSLVGRGFLTERDDILCPDCGKDI
